Assay results reported in patent publication US20050238733A1, “Topical anesthesia of the urinary bladder” (priority 2000, published 2005).

Legend:
[1] = intravesical, cited from earlier work
[2] = clinical; conditions: human, blood, other: intravesical (through transurethral urinary catheter)

For CCN(CC)CC(=O)Nc1c(C)cccc1C [lidocaine], the “plasma levels of lidocaine” value ([1]; 400 mg lidocaine hydrochloride) is given as 0.12 micrograms/ml, the “uptake from the bladder compared with intramuscular, subcutaneous and topical airway administration” value [1] is given as “sixteen times less” and the concentration at 180 min [2] is given as 400 ng/mL. The “absorption rate (blood levels) relative to that at pH 8.1” value (anesthetized rabbits, intra-vesical, pH levels above and below 8.1) was 25% and the “absorption of lidocaine at the optimum bladder pH versus lower or higher pHs” value (bladder, optimum pH) was “five times greater”.
